Results are given in words; binding and its absence hold for the method and conditions named. In cells and extracts the contact can be indirect. Some binding calls cover weakened binding; strength is not graded here.
Legend:
[1] = target: c-Myc (human (endogenous in HCT116)) (UniProt P01106); test: co-IP; Triton X-100 lysate of about 5 x 10^7 cells; rabbit anti-FUBP1 polyclonal antibody on protein A beads cross-linked with DSS; western blotting; reciprocal precipitation by c-Myc; IgG control
[2] = target: Human far upstream element (FUSE) binding protein 1 (human (endogenous in HCT116)) (UniProt Q96AE4); test: as above

Sequences of proteins named here, by UniProt entry; tags and fusion partners are left off.
UniProt P01106: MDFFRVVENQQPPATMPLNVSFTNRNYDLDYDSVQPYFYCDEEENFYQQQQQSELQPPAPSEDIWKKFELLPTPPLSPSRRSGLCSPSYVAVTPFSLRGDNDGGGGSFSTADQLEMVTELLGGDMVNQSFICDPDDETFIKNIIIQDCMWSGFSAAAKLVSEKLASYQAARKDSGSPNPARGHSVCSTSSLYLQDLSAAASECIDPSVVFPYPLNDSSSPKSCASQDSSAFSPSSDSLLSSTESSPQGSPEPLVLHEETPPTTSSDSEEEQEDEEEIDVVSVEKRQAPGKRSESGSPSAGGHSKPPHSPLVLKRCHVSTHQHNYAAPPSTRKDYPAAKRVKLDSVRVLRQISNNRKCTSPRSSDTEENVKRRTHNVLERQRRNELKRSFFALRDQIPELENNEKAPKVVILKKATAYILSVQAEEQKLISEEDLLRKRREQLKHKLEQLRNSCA
UniProt Q96AE4: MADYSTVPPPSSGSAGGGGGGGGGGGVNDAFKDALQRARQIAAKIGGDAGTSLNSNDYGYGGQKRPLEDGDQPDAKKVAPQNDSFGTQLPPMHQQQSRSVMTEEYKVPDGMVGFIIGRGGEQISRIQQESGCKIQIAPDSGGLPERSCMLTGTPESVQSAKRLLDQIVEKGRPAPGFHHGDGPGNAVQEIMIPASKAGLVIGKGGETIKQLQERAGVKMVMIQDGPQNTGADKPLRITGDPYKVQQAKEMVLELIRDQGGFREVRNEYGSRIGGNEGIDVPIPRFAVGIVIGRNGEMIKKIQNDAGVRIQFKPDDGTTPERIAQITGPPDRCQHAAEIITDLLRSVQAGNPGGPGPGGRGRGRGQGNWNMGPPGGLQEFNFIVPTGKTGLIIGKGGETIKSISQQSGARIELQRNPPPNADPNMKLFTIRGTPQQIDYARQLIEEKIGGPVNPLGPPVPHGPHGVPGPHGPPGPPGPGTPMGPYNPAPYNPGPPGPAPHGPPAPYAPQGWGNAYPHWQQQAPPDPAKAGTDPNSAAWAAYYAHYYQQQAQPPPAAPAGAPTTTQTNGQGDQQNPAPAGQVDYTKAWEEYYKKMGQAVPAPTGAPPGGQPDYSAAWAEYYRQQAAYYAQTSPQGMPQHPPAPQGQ

binding [1]	binding [2]	Substance
binds	–	Human far upstream element (FUSE) binding protein 1 (from UniProt Q96AE4 1-644)
–	binds	c-Myc (from UniProt P01106 1-454)

Reference: PMC9276009
